Assay results published in article PMC6895700, “SIX3 and SIX6 interact with GEMININ via C-terminal regions” (Biochemistry and Biophysics Reports, 2019).
Results are given in words; binding and its absence hold for the method and conditions named. For some assays here: In cells and extracts the contact can be indirect. Some entries that bind do so weakly or less than the wild type. For some assays here: Tags and fused reporters may be left off the sequences shown. Each block holds one binder with its values, some of them ahead of it.

Key:
[1] = molecular target: T1, MBP-fused full-length SIX3 (SIX3 without aa 1-78) (human) (UniProt O95343); assay: ITC; Nano ITC LV, 25 °C, PBS-TCEP with 300 mM NaCl (results: 437 mM NaCl); 200 μM GEMININ (or its coiled-coil region) in the syringe, 10 μM MBPSIX3 (or MBP alone) in the cell; independent binding sites model; GEMININ-to-MBP control subtracted; both purified
T1 sequence: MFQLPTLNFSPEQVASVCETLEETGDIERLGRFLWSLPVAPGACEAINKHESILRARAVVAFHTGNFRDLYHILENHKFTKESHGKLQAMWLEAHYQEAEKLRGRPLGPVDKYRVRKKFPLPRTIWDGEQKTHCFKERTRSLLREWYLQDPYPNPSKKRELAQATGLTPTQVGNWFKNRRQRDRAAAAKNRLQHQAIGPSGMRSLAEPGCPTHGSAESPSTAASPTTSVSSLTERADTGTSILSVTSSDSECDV

[2] = molecular target: T2, pBiFC-VN155 (I152L) GEMININ coiled-coil region (aa 82-160) (human) (UniProt O75496); assay: split reporter; BiFC with Venus halves in co-transfected COS-1 cells: SIX3/SIX6 constructs in pBiFC-VC155, GEMININ constructs in pBiFC-VN155 (I152L); fixed 24 h after transfection; confocal images; BiFC signal of about 100 single cells plotted against immunofluorescence (slope m)
T2 sequence: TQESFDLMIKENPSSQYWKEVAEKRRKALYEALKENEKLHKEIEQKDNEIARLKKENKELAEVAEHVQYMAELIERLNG

[3] = molecular target: T3, pBiFC-VN155 (I152L) GEMININ (full-length) (human) (UniProt O75496); assay: as above
T3 sequence: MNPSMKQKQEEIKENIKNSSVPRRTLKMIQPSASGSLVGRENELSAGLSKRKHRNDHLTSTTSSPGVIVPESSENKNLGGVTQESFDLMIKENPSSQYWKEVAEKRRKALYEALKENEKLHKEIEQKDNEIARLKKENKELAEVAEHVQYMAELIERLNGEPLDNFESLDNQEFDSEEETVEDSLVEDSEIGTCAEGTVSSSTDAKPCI

binding [1]: no binding
B1: GEMININ coiled-coil region (aa 82-160), purified (domain or fragment, UniProt O75496 82-160)
chain: T2 sequence

binding [2]: no binding | binding [3]: binds
B2: pBiFC-VC155 SIX6 (full-length) (protein, UniProt O95475 1-246)
chain: MFQLPILNFSPQQVAGVCETLEESGDVERLGRFLWSLPVAPAACEALNKNESVLRARAIVAFHGGNYRELYHILENHKFTKESHAKLQALWLEAHYQEAEKLRGRPLGPVDKYRVRKKFPLPRTIWDGEQKTHCFKERTRHLLREWYLQDPYPNPSKKRELAQATGLTPTQVGNWFKNRRQRDRAAAAKNRLQQQVLSQGSGRALRAEGDGTPEVLGVATSPAASLSSKAATSAISITSSDSECDI

binding [2]: no binding | binding [3]: binds
B3: pBiFC-VC155 SIX3 (SIX3 without aa 1-78, named full-length) (domain or fragment, UniProt O95343 79-332)
chain: T1 sequence
